# The campaign covered roughly 400,000 compounds. About 13,000 (3.2%) were called active. This list was built around the results that the source calls inconclusive (neither active nor inactive); the mix of calls is not that of the screen. Calls follow the shape of the dose curve; as a rule, active = well fitted cell-killing curve with a large enough effect; inconclusive = small, poorly fitted or top-dose-only effect, or effect the other way; inactive = flat fitted curve, though single readings scatter. Where the call is inconclusive, the potency comes from a doubtful curve fit.
# Assay: qHTS assay for MDR1-selective chemotherapeutics: Primary screen using the drug-selected MDR subline cells KB-V1; also: nearly all actives have a fitted effect of over 60% in size
# Conditions: KB-V1 MDR cells viability, CellTiter-Glo, 72 h; activity change, negative = cytotoxicity: at 46.1 µM (top of the series)
# In short: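 qHTS viability screen in drug-selected KB-V1 MDR cells: 72 h compound treatment at 37 degrees C, ATP luminescence end point.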
# % is scaled to controls: 0 for no effect and ±100 for the full control effect; potency is read from the fitted curve at half-maximal effect.
Compound,Potency,"activity change, negative = cytotoxicity"
COc1cc(OC)c(C(=O)OCC(=O)N2CCN(S(=O)(=O)c3ccc(C)cc3C)CC2)cc1OC,active: 16.4 µM,
CNC(=O)C1CC(=O)N(CCCc2ccccc2)C(=Nc2ccccc2)S1 (stereo unspecified),"inconclusive: 25.1 µM [cytotoxic, single point]",
CCCCC1Cc2[nH]c(=S)[nH]c(=O)c2C(C(C)C)O1 (stereo unspecified),"inconclusive: 9.2 µM [cytotoxic, partial curve]",
CCOC(=O)c1ccc(N=C2NC(=O)CS2)cc1,,inactive: 7.36%
Cc1cccc2nc(-c3cccc(NC(=O)c4ccc(Cl)cc4)c3)cn12,"inconclusive: 16.4 µM [cytotoxic, partial curve]",
CN(C)CCNc1ncnc2c1sc1nc(N3CCCC3)c3c(c12)CC(C)(C)OC3,"inconclusive: 9.2 µM [cytotoxic, partial curve]",
Cn1c(=O)n(C)c2cc(N3CCCCC3)c(NC(=O)c3ccc(Cl)cc3)cc21,"inconclusive: 29.1 µM [rising, single point]",
COc1cc(OC)c(NC(=O)c2c(C)nn(-c3ccc(C)cc3)c2-n2cccc2)cc1Cl,"inconclusive: 6.51 µM [cytotoxic, partial curve]",
COc1ccccc1OCCOCCOc1ccc(C)cc1[N+](=O)[O-],active: 13 µM,
CSc1cnnc2ccccc12,"inconclusive: 20.6 µM [cytotoxic, partial curve, poor fit]",
CN1CCN(CCc2nc3cc(NC(=O)c4ccco4)ccc3n2C)CC1,"inconclusive: 9.2 µM [rising, partial curve, poor fit]",
Cc1cc(C)n(-c2ccc(C(=O)OCC(=O)Nc3ccc(Cl)cc3[N+](=O)[O-])cc2)n1,"inconclusive: 6.51 µM [rising, partial curve]",
COc1ccc(Nc2nc(N)c([N+](=O)[O-])c(NCc3ccccc3)n2)cc1,"inconclusive: 9.2 µM [cytotoxic, partial curve, poor fit]",
COc1ccccc1NC(=O)C1CCOC1=O (stereo unspecified),"inconclusive: 32.6 µM [rising, single point]",
O=C(/C=C/c1cccc(Br)c1)NCC1CCCCC1,"inconclusive: 32.6 µM [cytotoxic, single point]",
CCc1ccc(C(O)c2ncc(-c3ccccc3Cl)[nH]2)cc1 (stereo unspecified),,inactive: 4.08%
COc1ccc(S(=O)(=O)N2CCCCC2)cc1NC(=O)CNc1ccccc1N1CCCC1=O,"inconclusive: 16.4 µM [rising, partial curve]",
O=C(CCNC(=O)c1ccco1)Nc1ccc(OC(F)F)cc1,"inconclusive: 0.461 µM [rising, full curve, poor fit]",
CC1CCN(C(=O)c2cc3nc(C4CC4)cc(C(F)(F)F)n3n2)CC1,"inconclusive: 18.4 µM [cytotoxic, single point]",
O=C(Nc1ccc(Cl)cc1)OCc1cc(-c2ccccc2Cl)on1,"inconclusive: 23.1 µM [cytotoxic, single point]",
C=CCn1c(SCC(=O)Nc2sc(C)c(C)c2C(=O)OCC)nnc1-c1sc(N)nc1C,"inconclusive: 14.6 µM [cytotoxic, partial curve]",

# Of the compounds above, these contain an aryl methoxy group.
Compound,Potency,"activity change, negative = cytotoxicity"
COc1cc(OC)c(C(=O)OCC(=O)N2CCN(S(=O)(=O)c3ccc(C)cc3C)CC2)cc1OC,active: 16.4 µM,
COc1cc(OC)c(NC(=O)c2c(C)nn(-c3ccc(C)cc3)c2-n2cccc2)cc1Cl,"inconclusive: 6.51 µM [cytotoxic, partial curve]",
COc1ccccc1OCCOCCOc1ccc(C)cc1[N+](=O)[O-],active: 13 µM,
COc1ccc(Nc2nc(N)c([N+](=O)[O-])c(NCc3ccccc3)n2)cc1,"inconclusive: 9.2 µM [cytotoxic, partial curve, poor fit]",
COc1ccccc1NC(=O)C1CCOC1=O (stereo unspecified),"inconclusive: 32.6 µM [rising, single point]",
COc1ccc(S(=O)(=O)N2CCCCC2)cc1NC(=O)CNc1ccccc1N1CCCC1=O,"inconclusive: 16.4 µM [rising, partial curve]",

# Continuation:

Compound,Potency,"activity change, negative = cytotoxicity"
CC(NC(=O)CN(c1cccc(C(F)(F)F)c1)S(=O)(=O)c1ccc(Cl)c([N+](=O)[O-])c1)c1ccccc1 (stereo unspecified),"inconclusive: 29.1 µM [cytotoxic, single point]",
O=C(NCCO)/C(=C/c1ccco1)NC(=O)c1ccco1,"inconclusive: 20.6 µM [rising, single point]",
COCCNC(=O)c1ccc2c(c1)nc(C)n2-c1cccc(F)c1,active: 20.6 µM,
COc1cc2c(cc1OCc1ccccc1)/C(=C/C(=O)OCc1ccccc1)OC2,"inconclusive: 9.2 µM [cytotoxic, partial curve, poor fit]",
O=C(NCc1ccccc1)c1ccc2c(c1)C(=O)N(Cc1cccnc1)C2=O,"inconclusive: 7.31 µM [rising, partial curve, poor fit]",
CCCCNC(=O)C[C@@H]1C[C@@]2(C(=O)OC)CC(C)(C)CC=C2N(CCc2ccc(OC)c(OC)c2)C1=O,"inconclusive: 2.06 µM [cytotoxic, full curve]",
C[C@@H]1COc2cc(N(C)CCO)ccc2S(=O)(=O)N1,"inconclusive: 29.1 µM [rising, single point]",
CCOC(=O)c1cnc(Nc2nc3ccccc3o2)nc1CSC(=S)N1CCCCC1,"inconclusive: 1.16 µM [cytotoxic, full curve]",
CN1CCN(C(=O)C2CC(=O)N(c3ccc(Cl)cc3)C2)CC1 (stereo unspecified),"inconclusive: 29.1 µM [rising, partial curve, poor fit]",
CN(C(=O)Nc1ccc(Cl)cc1Cl)C1CCCC1,"inconclusive: 29.1 µM [rising, single point]",
CC1(C(=O)NS(=O)(=O)c2cccc(F)c2)CCN1C(=O)c1ccccc1 (stereo unspecified),,inactive: -1.45%
COc1ccc(CCNC(=O)c2cc(C(=O)c3cc(Cl)ccc3O)cn(CCc3ccc(OC)cc3)c2=O)cc1,active: 2.59 µM,
C(=N\Nc1nc(-c2ccccc2)cs1)/c1ccco1,"inconclusive: 23.1 µM [cytotoxic, partial curve, poor fit]",
O=c1[nH]c(O)c(/C=C2\C=Nc3ccccc32)[nH]1,,inactive: -3.68%
COc1ccc(OCCOc2ccc(C)nc2[N+](=O)[O-])cc1,"inconclusive: 18.4 µM [cytotoxic, single point]",
Cc1cc(Oc2nc3c(C)cccn3c(=O)c2/C=C(\C#N)S(=O)(=O)c2ccccc2)ccc1Cl,"inconclusive: 18.4 µM [cytotoxic, single point]",
Cc1ccc(N=Cc2nc(/C=C/c3cccc([N+](=O)[O-])c3)oc2O)cc1,active: 16.4 µM,
O=C1CCC(C(=O)N2CCCCCCC2)CN1Cc1cccc(C(F)(F)F)c1 (stereo unspecified),"inconclusive: 29.1 µM [cytotoxic, single point]",
Cc1cc(Cl)c(S(=O)(=O)N2CCN(c3ccc(F)cc3)CC2)cc1OCC(N)=O,"inconclusive: 20.6 µM [cytotoxic, single point]",
CN(C)CCNc1oc(COc2ccc(-c3ccccc3)cc2)nc1C#N,,inactive: -2.87%
